Residue numbers refer to the chain shown, from its start. Names may count otherwise. Results are given in words; binding and its absence hold for the method and conditions named. Some entries that bind do so weakly or less than the wild type. For part of these data: Where a sequence is shown, tags or fusion partners need not be part of it.
Columns and labels:
BMP10 = target: T1, BMP10 (UniProt O95393); assay: similar Biacore binding assay
T1 sequence (looked up): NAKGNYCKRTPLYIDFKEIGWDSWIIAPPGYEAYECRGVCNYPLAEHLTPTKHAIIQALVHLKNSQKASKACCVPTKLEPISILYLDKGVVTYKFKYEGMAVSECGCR

Sequences of proteins named here, by UniProt entry; tags and fusion partners are left off. A change or cut given only in a name is not applied to a line headed by its entry. Residues count along the entry.
UniProt P22004, residues 382-513: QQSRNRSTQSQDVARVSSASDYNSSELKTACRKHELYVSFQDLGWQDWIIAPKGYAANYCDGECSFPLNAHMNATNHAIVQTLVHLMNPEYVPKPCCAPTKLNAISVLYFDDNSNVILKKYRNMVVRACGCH
UniProt P27037: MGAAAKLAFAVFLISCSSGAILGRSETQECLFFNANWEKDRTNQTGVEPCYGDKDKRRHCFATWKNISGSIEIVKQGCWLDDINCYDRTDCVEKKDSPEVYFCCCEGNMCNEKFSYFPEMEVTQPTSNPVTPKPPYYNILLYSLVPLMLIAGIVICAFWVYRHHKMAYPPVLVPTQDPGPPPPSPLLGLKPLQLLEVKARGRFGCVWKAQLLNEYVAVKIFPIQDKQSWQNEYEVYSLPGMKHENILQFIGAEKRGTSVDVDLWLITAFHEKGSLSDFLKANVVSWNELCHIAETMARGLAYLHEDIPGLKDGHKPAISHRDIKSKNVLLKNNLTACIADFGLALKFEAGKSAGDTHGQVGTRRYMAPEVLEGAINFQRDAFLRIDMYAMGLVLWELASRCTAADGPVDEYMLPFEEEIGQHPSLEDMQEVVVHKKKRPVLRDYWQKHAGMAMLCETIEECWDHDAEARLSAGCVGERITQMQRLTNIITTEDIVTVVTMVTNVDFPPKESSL

BMP6 = BMP6 (UniProt P22004); assay: similar Biacore binding assay
GDF8 = target: T2, GDF8 (UniProt O14793); assay: similar Biacore binding assay
T2 sequence (looked up): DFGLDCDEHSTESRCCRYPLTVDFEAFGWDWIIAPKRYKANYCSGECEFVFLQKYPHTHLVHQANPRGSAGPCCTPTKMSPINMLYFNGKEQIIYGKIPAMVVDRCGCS

activin B = target: T3, activin B (UniProt P09529 293-407); assay: similar Biacore binding assay
T3 sequence (looked up): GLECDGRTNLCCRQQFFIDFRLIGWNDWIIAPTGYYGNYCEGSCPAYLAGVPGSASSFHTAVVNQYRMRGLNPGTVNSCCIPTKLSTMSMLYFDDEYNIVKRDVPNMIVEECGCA

GDF11 [1] = target: T4, GDF11 (UniProt O95390 299-407); assay: Biacore, ligand amine-coupled to CM5 chip, Fc fusion flowed
T4 sequence (looked up): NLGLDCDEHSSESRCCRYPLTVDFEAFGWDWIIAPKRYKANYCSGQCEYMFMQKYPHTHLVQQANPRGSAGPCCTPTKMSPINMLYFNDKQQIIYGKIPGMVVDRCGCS

GDF11 [2] = target: T4, GDF11; assay: Biacore, ligand coupled to chip, receptor-Fc flowed

Molecule: ActRIIA-mFc (from UniProt P27037 21-135) (Fc fusion)
- binding (BMP10): binds
- binding (BMP6): binds
- binding (GDF8): binds
- binding (activin B): binds
- binding (GDF11 [1]): binds

B1: Soluble ActRIIB-Fc variant K74A (Table 12) (Fc fusion, UniProt Q13705 19-119, looked up, not shown: a dimerising Fc or GST)
chain: SGRGEAETRECIYYNANWELERTNQSGLERCEGEQDKRLHCYASWANSSGTIELVAKGCWLDDFNCYDRQECVATEENPQVYFCCCEGNFCNERFTHLPEA
- binding (GDF11 [2]): binds

B2: Soluble ActRIIB-Fc variant F82A (Fc fusion, UniProt Q13705 19-119, looked up, not shown: a dimerising Fc or GST)
chain: B1 chain with A56K, F64A
- binding (GDF11 [2]): binds

B3: Soluble ActRIIB-Fc WT (64A) (Fc fusion, UniProt Q13705 19-119, looked up, not shown: a dimerising Fc or GST)
chain: B1 chain with A56K
- binding (GDF11 [2]): binds

B4: Soluble ActRIIB-Fc variant R40A (Fc fusion, UniProt Q13705 19-119, looked up, not shown: a dimerising Fc or GST)
chain: B1 chain with R22A, A56K
- binding (GDF11 [2]): binds
